System: inflammatory pulmonary consolidation
Experiment: I-124 PUH71 PET-CT, tracer mixed with a therapeutic dose of non-radioactive PUH71 (FIGS. 3-4)
Type: in vivo, human
Description: Positron emission tomography (PET) combined with X-ray computed tomography (CT) was performed using a state of the art integrated PET-CT scanner (Discovery DSTE™ General Electric). CT scans for attenuation correction and anatomic coregistration were performed prior to tracer-injection, using the following acquisition parameters: 140 kVp; 85 mA; pitch of 1.75:1; reconstructed slice thickness of 3.75 mm; 0.8 s per rotation. The CT protocol was designed for anatomic localization of tracer-signal and for attenuation correction, while minimizing radiation exposure. Each patient received ˜185 megabecquerel (MBq) [^124I]-PU-H71 by peripheral vein over two minutes. PET emission scans were acquired in two-dimensional mode starting at the mid-thighs moving toward the head, for 7.5 minutes per PET bed position. […]
PU-PET images were taken 1.5, 4, 24 and 48-72 hrs after co-administration on the tracer mixed with a therapeutic dose of non-radioactive PUH71 in a total volume of […], co-infused intravenously over one hour. Patient were treated with PU-H71 at escalating dose levels determined by a modified continuous reassessment model. […] Pre- and post-treatment biopsies were collected for correlative studies including LCMSMS quantification of PU-H71, with the latter obtained within 24 hours of their cycle 1, day 1 dose of PU-H71.

SMILES: CC(C)NCCCn1c(Sc2cc3c(cc2[124I])OCO3)nc2c(N)ncnc21 [I-124 PUH71]
- time after injection of the radiotracer at which an inflammation/infection can still be detected (FIGS. 1-4): at least 24 hours
- time after injection of the radiotracer at which an inflammation/infection can be detected (early detection) (FIGS. 3 and 4): about 4 hours
